# Library screen at single concentrations

Amino acid sequences for entries named in this document (tags omitted). Residues count along the entry.
UniProt P9WPC5, whole entry: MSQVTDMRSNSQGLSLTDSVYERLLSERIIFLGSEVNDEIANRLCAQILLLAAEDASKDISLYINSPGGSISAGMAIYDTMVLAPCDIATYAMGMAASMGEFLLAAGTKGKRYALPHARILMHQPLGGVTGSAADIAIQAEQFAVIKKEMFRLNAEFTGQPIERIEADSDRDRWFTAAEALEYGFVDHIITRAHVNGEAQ
UniProt P9WPC3, whole entry partner: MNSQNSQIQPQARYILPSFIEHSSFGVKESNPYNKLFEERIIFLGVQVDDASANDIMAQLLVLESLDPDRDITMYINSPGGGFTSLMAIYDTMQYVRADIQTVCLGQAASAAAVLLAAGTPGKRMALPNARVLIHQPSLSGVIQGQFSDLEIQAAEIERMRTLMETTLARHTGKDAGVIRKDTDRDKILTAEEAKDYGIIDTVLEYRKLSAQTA
UniProt P9WNZ1, whole entry: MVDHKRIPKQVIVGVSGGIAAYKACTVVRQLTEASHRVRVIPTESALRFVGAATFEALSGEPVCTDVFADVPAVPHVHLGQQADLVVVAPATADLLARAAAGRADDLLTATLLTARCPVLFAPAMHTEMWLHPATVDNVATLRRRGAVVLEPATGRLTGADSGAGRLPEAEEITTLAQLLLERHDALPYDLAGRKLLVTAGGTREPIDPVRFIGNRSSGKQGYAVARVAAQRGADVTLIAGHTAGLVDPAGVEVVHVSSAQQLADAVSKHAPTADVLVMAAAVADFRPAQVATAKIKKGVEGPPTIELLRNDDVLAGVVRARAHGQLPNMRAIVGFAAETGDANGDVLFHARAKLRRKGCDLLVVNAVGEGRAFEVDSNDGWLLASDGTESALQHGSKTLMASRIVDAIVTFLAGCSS
UniProt Q8IDJ8, 1-583: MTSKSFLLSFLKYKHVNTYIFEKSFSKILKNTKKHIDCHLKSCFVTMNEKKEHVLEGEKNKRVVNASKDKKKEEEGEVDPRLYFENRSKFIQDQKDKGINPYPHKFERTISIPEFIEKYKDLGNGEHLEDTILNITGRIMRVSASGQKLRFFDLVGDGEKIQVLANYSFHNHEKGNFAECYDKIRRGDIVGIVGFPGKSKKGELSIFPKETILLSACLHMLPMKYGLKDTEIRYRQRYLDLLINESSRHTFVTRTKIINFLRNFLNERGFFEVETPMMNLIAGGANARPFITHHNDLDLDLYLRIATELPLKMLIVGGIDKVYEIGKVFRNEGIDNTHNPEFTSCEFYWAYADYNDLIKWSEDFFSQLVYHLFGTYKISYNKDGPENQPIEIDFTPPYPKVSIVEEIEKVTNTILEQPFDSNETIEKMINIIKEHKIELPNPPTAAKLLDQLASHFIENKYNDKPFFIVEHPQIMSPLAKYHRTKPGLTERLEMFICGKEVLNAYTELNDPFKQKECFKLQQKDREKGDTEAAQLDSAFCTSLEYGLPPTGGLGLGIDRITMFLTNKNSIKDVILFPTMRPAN

The values are deposited in ChEMBL (CHEMBL3988442, “University of Dundee, Small-Polar-MMV Screening Library” (2021)).

ClpP1P2: 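ClpP1P2, Mycobacterium tuberculosis (UniProt P9WPC5 and UniProt P9WPC3). Protease assay of ClpP1P2, read by the AMC dye that it sets free. Compounds at 50 µM. Direction is inferred from only a few compounds that gave an IC50; most scored high, so higher reads as stronger inhibition. Most other retested compounds had strongly negative values. About 69,000 compounds were tested under these conditions; 0.015% (about 10) showed 50% or more at least once.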
CoaBC: 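Enzyme assay of CoaBC with a phosphate dye (Biomol Green) read at 650 nm. Target: Coenzyme A biosynthesis protein CoaBC, Mycobacterium tuberculosis (UniProt P9WNZ1). Compounds at 30 µM. Direction is inferred from only a few compounds that gave an IC50; most scored high, so higher reads as stronger inhibition. Most strong results did not repeat in a second test. About 67,000 compounds were tested under these conditions; 0.06% (about 40) showed 50% or more at least once.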
PfKRS1: 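Lysine-tRNA ligase, Plasmodium falciparum 3D7 (UniProt Q8IDJ8). Enzyme assay of the cytosolic lysyl-tRNA synthetase in 384-well plates, read by luminescence. Tested at 30 µM. Direction is inferred from only a few compounds that gave an IC50; most scored high, so higher reads as stronger inhibition. Size under these conditions: about 69,000 compounds, about 49 of them at 50% or above in at least one test.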
Leishmania in macrophages: 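Cell assay of Leishmania donovani living inside macrophages; the read-out is not stated. Tested at 30 µM. Direction is inferred from retests: higher values go with stronger inhibition. Size under these conditions: about 69,000 compounds, about 1,000 of them at 50% or above in at least one test.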

Results are given as percent effect. The record does not define 0% and 100%; most values in the screen are far below 50% and negative numbers occur (in some assays of this library far below -100). The compounds are a random part of those screened. A dash means the value is not listed here; it may have been measured.

structure,ClpP1P2,CoaBC,PfKRS1,Leishmania in macrophages
NC(=O)CSCCC(=O)N1CCCC1c1ccsc1 (stereo not drawn),-12.93,4.641,0.1993,12.35
Cc1ncsc1CN1C[C@@H]2COC[C@]2(CNC(=O)c2ccco2)C1,5.31,1.607,-0.9543,-
COc1ccccc1N1CCN(C(=O)NC(C)c2nncn2C)CC1 (stereo not drawn),-14.36,1.044,0.4225,12.82
[H][C@@]12COC[C@]1([H])[C@@H](OCc1cccnc1)CN2C(=O)c1ccc[nH]1,-,-,-,26.45
CCN1CCC2(CN(C(=O)N(C)C)CC23CCN(CC2CC2)CC3)C1=O (stereo not drawn),7.081,2.799,-0.4359,-
O=C(O)C(F)(F)F.[H][C@@]12OCCN(C(=O)c3ccoc3C)[C@@]1([H])CC[C@H]2Oc1cccnc1,-,-,-,18.66
COc1cccc(CN(C)C(C)c2nccs2)c1OCCn1ccnc1 (stereo not drawn),-8.515,3.043,-2.137,33.12
CC(C)C(NCc1ccc(Cn2cncn2)cc1)c1ccc(F)cn1 (stereo not drawn),-5.681,1.818,2.593,14.97
CC(C)N1CC[C@H]2[C@H](C[C@@H](Cn3cccn3)N2c2nccs2)C1,-7.918,4.634,2.299,-
O=C(O)C(F)(F)F.O=C(O)C(F)(F)F.[H][C@@]12CCCO[C@]1([H])[C@H](N1CCCC1)CN(c1ccc(C)nn1)C2,-,-,-,-8.701
N#CC1(C(=O)N2Cc3cc(-c4cc[nH]n4)ccc3C2c2cnco2)CC1 (stereo not drawn),4.087,-,7.413,17.6
O=C(NC1CCN(C2CC2)CC1)N1CCN(c2cnccn2)CC1,-3.812,8.418,2.056,21.39
O=C(O)C(F)(F)F.[H][C@@]12CN(Cc3cccc(C)c3)C[C@]1([H])OCCN2c1ccnc(N(C)C)n1,-,-,-,-2.723
[H][C@@]12OCCN(C(=O)c3ccccc3F)[C@@]1([H])CC[C@H]2OCCN(C)C,-,-,-,24.56
Cc1nc[nH]c1CN1CCC2(CC1)CC(Nc1ncccn1)CO2 (stereo not drawn),-5.494,-1.152,3.54,-
CC(C)c1nn(C)c(N(C)C)c1CNC1CCc2cc(F)ccc21 (stereo not drawn),4.714,0.578,3.768,-
Cc1cccc(Sc2nccn(C)c2=O)c1,1.722,11.67,9.526,22.32
CC(O)CNC(=O)Nc1ccc(Br)cc1Br (stereo not drawn),8.107,0.2049,7.978,12.08
O=C(CN1CCCC1Cn1cccn1)NCCOc1cccc(F)c1 (stereo not drawn),-26.08,3.193,-1.952,12.66
c1ccc(CN2CCC3(CC2)CC(Oc2cccnc2)C3)nc1,-3.973,5.419,-1.948,-
O=C(C1CN(CC2CCOCC2)CC12CCOCC2)N1CCOCC1 (stereo not drawn),-11.77,1.844,3.12,-
O=C(C1CCOC1)N1CCN(CCn2cccn2)c2ncccc2C1.O=C(O)C(F)(F)F (stereo not drawn),-,-,-,14.34
CN(C)C(=O)C1CN(Cc2cscn2)CCN(S(C)(=O)=O)C1 (stereo not drawn),-5.614,-6.944,-0.1608,-8.908
O=C(COc1ccccc1F)NCCC(O)c1ccoc1 (stereo not drawn),-9.62,1.277,5.682,-50.73
N#Cc1cccc(C(=O)N2CCC3(CCC(=O)N(C4CC4)C3)CC2)c1,-4.258,2.679,-1.206,4.715
O=C(Nc1ccc2c(c1)OC1(CCCCC1)O2)c1ccc(=O)[nH]n1,-1.159,1.297,3.012,-2.465
O=C(NCCN1CCCCCC1=O)c1ccn(-c2ccc(F)cc2)n1,5.19,6.287,7.586,11.05
C[C@@H]1CN(c2ccc(Cl)cn2)C[C@]1(C)O,-8.834,4.531,0.4881,-12.56
CN(C)[C@@H]1CO[C@H](CNC(=O)c2ccccc2)[C@H]1O,-5.875,2.032,10.63,-111.4
NC(CC1CCCCC1)c1ccccc1 (stereo not drawn),8.418,-1.737,3.936,-
CCn1c(=O)n(CCC(=O)N(C)Cc2ccc(C)o2)c2ccccc21,11.92,-1.965,5.33,-2.927
Cc1ccc(N2CCCc3sc(C(=O)NCc4cccnc4)nc32)nn1,-2.077,-4.086,-3.213,28.06
COc1ccc(F)cc1C(=O)C1CCCN(Cc2ccc(C)s2)C1 (stereo not drawn),-26.59,7.786,3.445,-15.87
Cn1cc(C(C)(O)CNC(=O)c2ccc(Br)s2)cn1 (stereo not drawn),6.599,-6.203,2.308,-6.854
CCOc1cc(NC(=O)NCCn2cnnc2CC)ccc1C,3.982,1.613,2.422,20.5
CN1CCN(CCCNCc2cc(O)c3cc(F)ccc3n2)CC1,-1.152,-1.341,-1.51,16
C/C=C(\C)CN1C[C@H](c2cccc(OC)c2)[C@@H](N)C1,-7.136,-16.45,0.3681,16.88
Cc1ccnc(C2CN(Cc3ccc(-c4ccccc4C(=O)O)o3)C2)n1,-9.193,-2.713,0.5519,25.89
OC1(Cn2ccc3ncccc32)CCN(Cc2cccs2)CC1,3.132,-2.696,2.56,14.54
CC1CCN(CCCNC(=O)NC(C)c2nncn2C)CC1 (stereo not drawn),-17.03,2.041,0.2768,1.813
CC(Cn1cccn1)NC(=O)Nc1nncs1 (stereo not drawn),-6.018,0.4779,0.816,29.48
OC(CNC1CCOCC1)c1cccc(OCc2ccccc2)c1 (stereo not drawn),-4.734,5.542,-1.51,10.21
O=C(O)c1cc(S(=O)(=O)Nc2cccc3c2OCCO3)ccc1F,-10.96,0.6402,-1.378,14.02
[H][C@@]12C[C@@H](c3nnc(C4CC4)o3)O[C@]1([H])CN(CC1CCOCC1)C2,-,-,-,14.54
CN(C)C(=O)c1cnc2n1CCN(Cc1ccc3c(c1)OCO3)C2,4.55,5.5,1.164,-
Cc1cccc(CC(=O)N2CCCCC2CN)c1.Cl (stereo not drawn),-,-,-,18.13
O=C(O)C(F)(F)F.[H][C@@]12CCCO[C@]1([H])[C@H](NC(=O)c1cnn(C)c1)CN2CC1CCOCC1,-,-,-,10.78
CN1CCOC(CNCCCOc2ccc(C#N)cc2)C1 (stereo not drawn),11.26,-22.75,2.761,19.07
CCOc1ccc(Cl)cc1C1CCCN1.Cl (stereo not drawn),-,-,-,7.031
CN(Cc1ccccn1)C1COC2(CCN(Cc3nccs3)CC2)C1 (stereo not drawn),1.472,4.442,0.02373,21.66
Cc1ncsc1CN1CC[C@H]2C[C@H](c3ccncn3)O[C@@H]2C1,-24.29,2.155,-1.522,-
CCSc1ncc(CN2CCN(c3nc(C)ncc3C)CC2)cn1,-3.027,-0.4902,1.347,25.99
NCCCNS(=O)(=O)Cc1ccc(Br)cc1,-19.39,0,4.519,-
Cn1c(C2CCCN2C(=O)CN2CSCC2=O)nc2ccccc21 (stereo not drawn),-1.171,1.34,2.221,16.55
C=C(C)CN1CCC(NC(=O)Nc2ccc(F)c(C(N)=O)c2)CC1,2.886,3.113,4.775,3.537
CCC(O)CN1CCN(C(=O)c2cccc3[nH]ncc23)CC1 (stereo not drawn),-15.01,2.737,0.07861,10.4
Cc1nc(C)c(C(=O)N2CCN(CCOc3ccccc3C)CC2)o1,-9.587,1.901,4.371,-23.48
Cn1cc(CN2CCCC3(CCN(c4nncs4)C3)C2)cn1.O=C(O)C(F)(F)F (stereo not drawn),-,-,-,-4.112
[H][C@]12CC[C@]([H])(CN(C(=O)c3ccc(F)c(Cl)c3)C1)N(Cc1ccccc1)C2,-,-,-,12.22
COc1cc(C#N)ccc1OCC(=O)NS(=O)(=O)c1cccnc1,-5.621,3.738,8.681,25.12

The last 7 entries again:

structure	ClpP1P2	CoaBC	PfKRS1	Leishmania in macrophages
Cn1c(C2CCCN2C(=O)CN2CSCC2=O)nc2ccccc21 (stereo not drawn)	-1.171	1.34	2.221	16.55
C=C(C)CN1CCC(NC(=O)Nc2ccc(F)c(C(N)=O)c2)CC1	2.886	3.113	4.775	3.537
CCC(O)CN1CCN(C(=O)c2cccc3[nH]ncc23)CC1 (stereo not drawn)	-15.01	2.737	0.07861	10.4
Cc1nc(C)c(C(=O)N2CCN(CCOc3ccccc3C)CC2)o1	-9.587	1.901	4.371	-23.48
Cn1cc(CN2CCCC3(CCN(c4nncs4)C3)C2)cn1.O=C(O)C(F)(F)F (stereo not drawn)	-	-	-	-4.112
[H][C@]12CC[C@]([H])(CN(C(=O)c3ccc(F)c(Cl)c3)C1)N(Cc1ccccc1)C2	-	-	-	12.22
COc1cc(C#N)ccc1OCC(=O)NS(=O)(=O)c1cccnc1	-5.621	3.738	8.681	25.12